# Experimental data published in doi:10.1101/2025.03.28.645880.
# By UniProt entry, the sequences of proteins in these tests, tags left out.
# UniProt Q00610: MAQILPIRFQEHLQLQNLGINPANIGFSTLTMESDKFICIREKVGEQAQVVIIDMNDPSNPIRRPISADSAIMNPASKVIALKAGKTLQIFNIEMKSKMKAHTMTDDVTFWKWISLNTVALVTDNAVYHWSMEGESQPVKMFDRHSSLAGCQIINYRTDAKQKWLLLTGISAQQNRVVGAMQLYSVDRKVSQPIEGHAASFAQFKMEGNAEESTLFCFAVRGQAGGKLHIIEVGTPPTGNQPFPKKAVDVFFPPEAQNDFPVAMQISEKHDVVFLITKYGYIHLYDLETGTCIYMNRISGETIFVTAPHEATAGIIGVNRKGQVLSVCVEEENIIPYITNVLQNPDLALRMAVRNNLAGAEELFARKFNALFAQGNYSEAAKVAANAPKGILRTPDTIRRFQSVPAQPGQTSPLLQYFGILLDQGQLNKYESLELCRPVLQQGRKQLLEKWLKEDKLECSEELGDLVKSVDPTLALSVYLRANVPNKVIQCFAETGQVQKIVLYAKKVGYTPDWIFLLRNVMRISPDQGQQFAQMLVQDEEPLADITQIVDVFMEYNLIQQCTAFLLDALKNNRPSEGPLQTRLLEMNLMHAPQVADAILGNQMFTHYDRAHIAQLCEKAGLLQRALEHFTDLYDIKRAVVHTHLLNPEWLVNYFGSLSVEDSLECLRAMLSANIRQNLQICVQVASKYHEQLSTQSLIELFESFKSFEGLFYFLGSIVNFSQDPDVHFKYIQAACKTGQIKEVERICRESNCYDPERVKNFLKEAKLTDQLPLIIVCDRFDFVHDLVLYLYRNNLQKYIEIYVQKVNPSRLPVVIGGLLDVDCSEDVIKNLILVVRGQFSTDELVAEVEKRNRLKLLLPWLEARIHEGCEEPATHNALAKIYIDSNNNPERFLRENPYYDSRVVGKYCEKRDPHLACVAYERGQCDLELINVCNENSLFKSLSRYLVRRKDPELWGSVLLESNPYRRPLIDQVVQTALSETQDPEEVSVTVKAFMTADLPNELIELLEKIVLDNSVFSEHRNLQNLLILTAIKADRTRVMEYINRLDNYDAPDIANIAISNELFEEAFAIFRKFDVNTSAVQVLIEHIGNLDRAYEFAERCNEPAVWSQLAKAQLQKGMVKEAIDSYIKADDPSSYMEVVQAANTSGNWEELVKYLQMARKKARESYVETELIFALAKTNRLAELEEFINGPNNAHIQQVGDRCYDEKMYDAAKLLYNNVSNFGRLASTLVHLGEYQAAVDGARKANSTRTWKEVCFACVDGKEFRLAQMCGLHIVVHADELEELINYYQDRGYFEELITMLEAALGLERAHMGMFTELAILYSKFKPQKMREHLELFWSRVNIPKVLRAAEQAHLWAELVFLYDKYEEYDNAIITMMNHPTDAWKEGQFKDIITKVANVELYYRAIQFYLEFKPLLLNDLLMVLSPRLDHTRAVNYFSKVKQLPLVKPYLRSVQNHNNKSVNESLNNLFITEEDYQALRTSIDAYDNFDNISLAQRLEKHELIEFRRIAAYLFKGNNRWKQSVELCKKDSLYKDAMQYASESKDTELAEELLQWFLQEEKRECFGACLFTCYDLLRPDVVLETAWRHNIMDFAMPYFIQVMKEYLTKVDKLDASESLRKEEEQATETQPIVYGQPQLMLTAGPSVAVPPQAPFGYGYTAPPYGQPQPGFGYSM
# These are yes or no findings as the source states them, for the method shown. Binding seen in cells or lysates may run through a third protein. Some results given as binding are weak or reduced against the parent protein; the word gives no strength.
# Target: T1, human Copper Transporter-1 (hCTR1) (human) (UniProt O15431)
# T1 sequence: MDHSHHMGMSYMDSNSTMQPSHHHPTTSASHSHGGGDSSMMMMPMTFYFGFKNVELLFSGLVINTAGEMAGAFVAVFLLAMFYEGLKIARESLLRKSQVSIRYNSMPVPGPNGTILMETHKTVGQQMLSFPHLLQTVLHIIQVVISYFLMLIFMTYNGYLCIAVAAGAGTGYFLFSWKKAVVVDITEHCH
# Test: co-IP
substance,measurement,value
Clathrin Heavy Chain (from UniProt Q00610 1-1675),binding,binds
